For at least one entry, the source does not settle the construct or the ends of the probe. Negatives hold for the conditions tested.
System: DasR (Streptomyces lincolnensis NBRC_13054)
Assay: EMSA
Conditions: EMSA kit, 20 uL, 50 ng/uL Cy5 probe, 6% non-denaturing PAGE; fifth lane with 10 mg/mL salmon sperm DNA; salt and temperature not given; recombinant protein; protein details: 6xHis (pCold II); label: Cy5; probe letters rebuilt from the primers and the genome

“AGCCAGTGGCGATAAGATCCCGAGGTCGACGCCCGAGCCGGTGAACAACGTCCGTTCCCCGTACCGGACATTGGCCTCATGGCACGTCAACACGGTGCGTCCGGCCGGGACCGAGGTCTGCGGAAGGGTGATCGCCAGGCGCGCTTCCTCACGCATCCCCTGACTGGCCTCGTCCAGCTTGGCCTTGGCCTGGGACACCCGGTCCTGGTGCACCGAGGCGGCGCGGCCCGCCGATTCCTGAGCCTGTCGCTGAAGGGCGCCCGCGTGGATACGGGGCACCCCCGACGAAGCCTTGTTCTTATCGCCACTGGCT (double strand) [lmbU promoter]”: no binding.

“AGCCAGTGGCGATAAGATCGAGGACCTGACCGGCACGACCGGGGCGCGCGCCGCCTCCGGAGCCGCCGCGACCGGTGCCGTCGCCCGTCGCACCGTCCTCGTCACCGCCGCCCTGGGGGAGACCACCCGCACCCGCGCCACGGTCCTGCCGGACCTGTCCGCGCCGCCGCCCCTGCCCACGGACCTCGTCCCGCCCCTCGTCGAACTGCCGCGGTACACCGGGGCGTTGCCGCCGCACACGGTCCTGGAGCCGATGGCGTTCGCGGAACTGCTCGCGGAGTTCGCCGCGGTGGCCCTCGCCGTGCACGGCCCGGACGACGTCGAGCGCTTTCGGCGCCACTGGGACGGCACCCGGGTCGGCGTGCCCGCCCTCACCGTGACGGACAGTCCAGGGGCACTCGGCGGCTGGCCGGTGGACAGCGAGGGCACGACGGCCGCCCGACTGCCCCTGGTCGAGGCCGGAACCGTGGTCGGGTGCGCCCTGGACCGGGCCACCGCCGATGCCCTGGGACGCGCCCCCACCGGGCGCGCCTCGCGCGAGGTGTCCGGCCTCGCGGCCTACCCGGCCAACCTCGTGGTGGAGCTGCTTATCGCCACTGGCT (double strand) [lmbR promoter]”: no binding.
